Results as given in PubChem BioAssay AID2417 (National Center for Advancing Translational Sciences (NCATS), 2010).
Among all 140,000 compounds or so, about 4,300 (3.1%) were called active. The shares of active, inactive and inconclusive entries below differ from those in the screen.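 Rule for the calls: active = readout at or below -70, meaning at least 70% loss of cells showing the perinucleolar compartment, a nuclear body marking cancer cells; inconclusive = readout between -30 and a set limit; inactive = the rest.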

Assay: High Content Assay for Compounds that inhibit the Assembly of the Perinucleolar Compartment;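 note: plate controls were DMSO wells for no effect and camptothecin positive control wells for full effect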
Conditions: PC3M PTB-GFP, PNC prevalence imaging, 16 h; at 10 µM; active compounds read low
How it was run: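 Compounds are pinned in duplicate onto adhered PC3M cells stably expressing GFP-tagged PTB and incubated 16 h at 37 C. Cells are then fixed, nuclei stained with Hoechst, and PNC-positive cells counted.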

Structure (SMILES) | activity change (PNC), negative = inhibition
COc1cc(C2/C(=C(/O)c3ccc(OCC(C)C)cc3)C(=O)C(=O)N2CCN(C)C)ccc1O (configuration not stated) | inconclusive: -46%
CCOc1cccc(-c2nnc(SCC(=O)Nc3cc(OC)cc(OC)c3)n2N)c1 | inconclusive: -47.3%
CCNc1nc(NCC)n2c(SCC(=O)Nc3ccc(C(F)(F)F)cc3[N+](=O)[O-])nnc2n1 | inconclusive: -56.1%
Cc1ccc(-c2noc(CCC(=O)NCCN3CCc4ccccc4C3)n2)cc1 | inconclusive: -32.5%
CC1CC(C)(C)NC(=S)N1CCCC(=O)N1CCN(c2ccc(F)cc2)CC1 (configuration not stated) | inconclusive: -52.7%
CCCn1c(NC(=O)c2cccc(C)c2C)nc2ccccc21 | inactive: 6.72%
O=C(O)CC/C(=C\c1cc([N+](=O)[O-])ccc1Cl)c1nc2ccccc2s1 | inconclusive: -58.5%
COc1ccc(-c2c3c(=O)n(C)c(=O)n(C)c3cn2-c2cc(OC)ccc2OC)cc1 | inconclusive: -37.9%
CCNc1nc(NCC)nc(SCCOC(=O)Nc2ccc(Cl)cc2Cl)n1 | inconclusive: -55.8%
CCOC(=O)C1CCCN(C(=O)Cc2ccc(Cl)cc2)C1 (configuration not stated) | inactive: 37%
COC(=O)c1[nH]c2c(c1C)C(=O)CC(c1cc(OC)ccc1OC)C2 (configuration not stated) | inconclusive: -33.4%
O=C(Cn1cnc2ccccc21)OCC(=O)N1CCc2ccccc2C1 | inactive: 7.81%
CNC(=O)c1sccc1SCc1ccc(Cl)cc1Cl | inconclusive: -33.1%
Cc1cc(Cl)ccc1NC(=S)NCCC(c1ccccc1)c1ccccc1 | active: -86%
COc1cc2c(cc1OC)C1Cc3ccc(OC)c(OC)c3CN1CC2 (configuration not stated) | active: -86.1%
Cc1nnc(SCC(=O)Nc2ccc(S(=O)(=O)N3CCCCC3)cc2)s1 | inconclusive: -34.4%
COc1ccc(/C=N/Nc2nc3ccccc3[nH]2)cc1OC | inactive: 32.3%
Cc1ccc(CSc2nnc(-c3cccs3)n2C)cc1 | active: -100%
CC(C)(C)c1ccc(C(=O)Nc2ccc(N3CCOCC3)cc2)cc1 | inactive: -28.5%
O=C(Nc1ccccc1C(=O)NCCCn1ccnc1)c1ccc(Cl)cc1Cl | inconclusive: -33.7%
COc1ccc(N/C(C)=C/C(=S)Nc2ccccc2)cc1 | inactive: -21.1%
Cc1cc(C)nc(NS(=O)(=O)c2ccc(NC(=O)c3cccc(N4C(=O)CCC4=O)c3)cc2)n1 | inconclusive: -37.6%

Structure (SMILES) | activity change (PNC), negative = inhibition
CC(C)CNS(=O)(=O)c1ccc(CCC(=O)N2CCN(Cc3ccccc3)CC2)cc1 | inconclusive: -58.9%
Cc1cccc2cc(CN(Cc3cccs3)C(=S)NCC3CCCO3)c(=O)[nH]c12 (configuration not stated) | inconclusive: -39.6%
O=C(CCCN1C(=O)c2ccccc2C1=O)NCCCN1CCOCC1 | inconclusive: -39.8%
COC(=O)[C@@]1(Cc2ccc(F)cc2)[C@H]2c3cc(C(=O)N4CCCC4)n(CCO)c3C[C@H]2CN1C(=O)c1ccccc1 | inconclusive: -53.7%
CCOc1ccc(/C=N/NC(=O)C(C)N(c2ccc(OC)cc2)S(C)(=O)=O)cc1 (configuration not stated) | inconclusive: -34%
Cc1ccc2nc(NC(=O)CN(C)S(=O)(=O)c3cccc4nsnc34)sc2c1 | active: -122%
COC(=O)c1ccc(Oc2nc(C)cc(Oc3ccccc3)n2)cc1 | inconclusive: -40.2%
Cc1ccc(CNc2ccc(N3CCOCC3)c(C(=O)O)c2)s1 | inconclusive: -46.9%
CCCCn1c(=O)c(CCC(=O)OCC(=O)Nc2cccc3ccccc23)nc2ccccc21 | inconclusive: -56.3%
Cc1cccc(OCC(=O)NNC(=O)c2cc3ccccc3oc2=O)c1 | inactive: 4.52%
CCN(CC)S(=O)(=O)c1ccc(N2CCOCC2)c(NC(=O)c2cc(C)cc(C)c2)c1 | inactive: 30.1%
CNc1oc(-c2ccco2)nc1C#N | inconclusive: -30.5%
CC1(C)CN=C(N2CCN(c3ncnc4sc5c(c34)CCCC5)CC2)S1 | inconclusive: -37.3%
Cc1ccccc1NS(=O)(=O)c1ccc(NC(=O)c2nc3ncccn3n2)cc1 | inconclusive: -74.3%
CCN1C(=O)c2cccc3c(NC(=O)c4ccc(S(=O)(=O)N(C)C)cc4)ccc1c23 | inactive: -15.5%
CCN(c1ccccc1)S(=O)(=O)c1ccc(C(=O)Oc2ccc(C(C)=O)cc2)cc1 | inactive: 19.9%
COc1ccc(-c2csc(NC(=O)c3cc(C)on3)c2C#N)cc1OC | inconclusive: -61.4%
Cc1cc(C(=O)CSc2n[nH]c(-c3ccccc3F)n2)c(C)n1Cc1cccs1 | inconclusive: -40.6%
COc1ccc2[nH]c(=O)c(CN(Cc3nnnn3Cc3ccco3)C3CCCCC3)cc2c1 | inactive: -2.65%
Cc1nn(CC(=O)Nc2cccnc2N2CCOCC2)c(=O)c2ccccc12 | inconclusive: -30.4%
COc1ccc(NC(=O)C2CC2)cc1NS(=O)(=O)c1ccc(F)cc1 | inactive: -23.8%
O=C(CSC1=NCCN1)NC1CCCCCC1 | inconclusive: -56.7%

Structure (SMILES) | activity change (PNC), negative = inhibition
CCCCn1nc2cc(C(=O)NCCc3ccc(C)cc3)ccc2c1OCC | inconclusive: -44.6%
CC(C)COc1ccc(C(=O)NCc2ccco2)cc1 | inconclusive: -36.3%
O=C(CSc1nc2ccccc2c(=O)n1-c1ccccc1)N1CCc2ccccc2C1 | inconclusive: -34.8%
Fc1ccc(/C=N/NC2=Nc3cccc4cccc2c34)cc1 | inactive: 9.5%
N#C/C(=C(/O)COC(=O)c1ccc(C#N)cc1)c1nc2ccccc2s1 | inactive: 7.81%
CC(C)(C)c1nc2c(Br)cc(Br)cc2c(=O)o1 | inactive: -19.4%
COc1ccc(-c2nnc(SCCC(=O)O)n2-c2ccccc2)cc1OC | inconclusive: -76.1%
CCCS(=O)(=O)c1c(S(=O)(=O)CCC)c2c3ccccc3ccn2c1C(=O)OC | active: -105%
Cc1cc2oc(C(=O)Nc3c(C)n(C)n(-c4ccccc4)c3=O)c(C)c2cc1C | inconclusive: -56.1%
O=C(COC(=O)C1CC(=O)N(Cc2ccco2)C1)c1ccc(OC(=O)c2ccco2)cc1 (configuration not stated) | inactive: -11.1%
Cc1ccccc1N=C1NN=C(c2ccccc2F)CS1 | inconclusive: -33.8%
COc1ccccc1NC(=O)NC(N)=O | inconclusive: -38.2%
CCCOc1ccc(N2C(=O)CC(N(O)c3ccccc3)C2=O)cc1 (configuration not stated) | active: -89%
COc1cc(CC(=O)NCc2cccs2)cc(OC)c1OC | inconclusive: -58.4%
Cc1cc(C)c2[nH]c(=O)c(CN(CC3CCCO3)C(=S)NCc3ccco3)cc2c1 (configuration not stated) | active: -81.6%
COCCOC(=O)C1=C(C)N=C2SCCC(=O)N2C1c1cccc(Br)c1 (configuration not stated) | inconclusive: -50.5%
O=C(NCCN1CCCCC1)c1ccc2c(c1)OCCO2 | inactive: 29.1%
Cc1ccc(C2C(C#N)=C(N)SC(N)=C2C#N)cc1 | inactive: -26.2%
Cc1ccc(C)c(NC(=O)CN(C)C(=O)CCN2C(=O)c3ccccc3C2=O)c1 | inconclusive: -41.3%
CCC(=O)NC(c1ccc(C)cc1)c1cc([N+](=O)[O-])c2cccnc2c1O (configuration not stated) | inconclusive: -38.3%
COC(=O)c1c(NC(=O)Nc2ccc(Cl)cc2)sc(C)c1C | inactive: -16.4%
O=C(CN1CCN(c2ccc(F)cc2)CC1)Nc1nnc(-c2ccccc2)s1 | inconclusive: -58.4%

Structure (SMILES) | activity change (PNC), negative = inhibition
O=C(NCC(c1cccs1)N1CCOCC1)c1ccc(Cl)c([N+](=O)[O-])c1 (configuration not stated) | inactive: -3.39%
CCOc1ccc(NC(=O)CSc2nnnn2CC(=O)O)cc1 | inconclusive: -45.1%
O=C(NCCOc1ccccc1F)c1cc(F)c(F)cc1Cl | inconclusive: -42.3%
Cc1ccc(S(=O)(=O)N2CCCC2C(=O)Nc2cc(C)on2)cc1 (configuration not stated) | inconclusive: -58.2%
Cc1nc([N+](=O)[O-])nn1C12CC3CC(CC(Cl)(C3)C1)C2 | inactive: -13.2%
Cc1ccccc1CNC(=O)c1ccccc1 | inconclusive: -65%
Cc1ccc(-n2nc(C)c3c2OC(N)=C(C#N)C3c2ccncc2)cc1 (configuration not stated) | inactive: 48.8%
O=C(c1cc(NC(=O)C23CC4CC(CC(C4)C2)C3)cc(NC(=O)C23CC4CC(CC(C4)C2)C3)c1)N1CCCCC1 | active: -97%
CCC(C)[C@H](NC(=O)Nc1ccc(C(C)=O)cc1)C(=O)OC (some centres not stated) | active: -81.9%
COc1cc(-c2nnc(SCC3(c4ccc(Br)cc4)OCCO3)o2)cc(OC)c1OC | inconclusive: -33.4%
Cc1cc(=O)oc2c1c(C)nn2-c1ccc(C(=O)OC(C)C)cc1 | inconclusive: -47.7%
Cc1nonc1OCC(C)(COc1nonc1C)NC(=O)c1ccc(Cl)cc1 | inconclusive: -39%
O=C(CN1C(=O)CSCC1=O)NCc1ccc(F)cc1 | inconclusive: -30.5%
COc1ccc(NC(=O)CCN2CCN(S(=O)(=O)c3ccc(Cl)cc3)CC2)cc1 | inconclusive: -43.7%
Cc1cc(C)cc(N=C2NC(=O)/C(=C/c3cccs3)S2)c1 | inconclusive: -41.8%
O=[N+]([O-])c1cccc(C2=NCCS2)c1 | inconclusive: -48.8%
O=C(CN1C(=O)NC2(CCCc3ccccc32)C1=O)N1CCN(C(=O)c2ccco2)CC1 (configuration not stated) | inactive: -28.1%
CCOc1cc(C(=O)Nc2ccc([N+](=O)[O-])cn2)cc(OCC)c1OCC | inconclusive: -43.5%
COc1ccc(NC(=O)CSc2nnc(CN3CCOCC3)n2-c2ccccc2)cc1Cl | inconclusive: -60%
O=C(Nc1cccc(S(=O)(=O)N2CCOCC2)c1)c1cn(-c2ccccc2)nc1-c1ccc(F)cc1 | inconclusive: -56.7%
CSCCC(Nc1nc2ccccc2s1)C(=O)O (configuration not stated) | inconclusive: -53.8%

Molecules listed so far with a furan ring, fused or not:
Structure (SMILES) | activity change (PNC), negative = inhibition
CNc1oc(-c2ccco2)nc1C#N | inconclusive: -30.5%
COc1ccc2[nH]c(=O)c(CN(Cc3nnnn3Cc3ccco3)C3CCCCC3)cc2c1 | inactive: -2.65%
CC(C)COc1ccc(C(=O)NCc2ccco2)cc1 | inconclusive: -36.3%
Cc1cc2oc(C(=O)Nc3c(C)n(C)n(-c4ccccc4)c3=O)c(C)c2cc1C | inconclusive: -56.1%
O=C(COC(=O)C1CC(=O)N(Cc2ccco2)C1)c1ccc(OC(=O)c2ccco2)cc1 (configuration not stated) | inactive: -11.1%
Cc1cc(C)c2[nH]c(=O)c(CN(CC3CCCO3)C(=S)NCc3ccco3)cc2c1 (configuration not stated) | active: -81.6%
O=C(CN1C(=O)NC2(CCCc3ccccc32)C1=O)N1CCN(C(=O)c2ccco2)CC1 (configuration not stated) | inactive: -28.1%
